The values that follow come from article PMC13385793.

The chains behind the UniProt entries cited, without tags or fusion partners.
UniProt O60675: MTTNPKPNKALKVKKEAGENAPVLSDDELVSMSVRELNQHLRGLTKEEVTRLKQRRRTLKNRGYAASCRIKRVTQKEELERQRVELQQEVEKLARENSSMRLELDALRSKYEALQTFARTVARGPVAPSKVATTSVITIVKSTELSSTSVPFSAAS
UniProt Q9ULX9: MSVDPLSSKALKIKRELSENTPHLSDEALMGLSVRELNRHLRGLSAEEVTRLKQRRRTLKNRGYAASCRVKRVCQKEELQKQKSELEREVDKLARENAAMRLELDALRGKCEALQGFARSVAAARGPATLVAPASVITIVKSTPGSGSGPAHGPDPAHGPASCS

For experiment [1], the target named is MYC-DDK-tagged MAFK (overexpressed) (human) (UniProt O60675). As to the kind of experiment: co-IP; MAFG, MAFF and MAFK compared for co-IP with MITF, normalized co-IP efficiency (Supplementary Fig. 13j, k); cells not given.
For experiment [2], the target named is MYC-DDK-tagged MAFF (overexpressed) (human) (UniProt Q9ULX9). Described as above.

No constants are given. Whether binding was seen depends on the method and setting. Binding seen in cells or lysates may run through a third protein. Binding calls can cover weak binding; strength is not graded here.

Regarding “MITF (microphthalmia-associated transcription factor), endogenous (from UniProt O75030-9)”, the binding result in experiment [1] and in experiment [2] was “binds” each time.
